Data as given in PubChem BioAssay AID1259254 (NCATS, 2017)

Assay: 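Genome-wide screen for genes that prevent DNA re-replication in cancer cells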 (primary screen)
Cells: human HCT116 colorectal cancer cells
Knock-down reagent: single siRNA against human genes
Timing: 3 days
Measured: 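Nuclei stained with Hoechst and imaged; cell-cycle phase assigned by DNA content; G2 share scaled per plate, non-targeting siRNA 0%, GMNN siRNA 100%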
Reading the numbers: G2 robust z-score and G2 cells, % of GMNN control: higher = more G2 cells, more excess DNA replication
Rule for the call: 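Active siRNAs have a G2 robust z of 5 or more median absolute deviations over the median, which in these data means about 38% or higher of GMNN control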
This is one part, drawn at random, of about 59,000 reagents. Of all reagents, about 1,550 (2.6%) got an active call. 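G2 share is only a proxy for re-replication; each gene was hit by three separate siRNAs, and active genes were retested.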 Unmarked entries are inactive. The numbers tell different reagents against one gene apart. Further read-outs or replicates are left out here. Not given: the amount of reagent.

LOC648934 #1
- G2 robust z-score: 1.61
- G2 cells, % of GMNN control: 14.3

LOC648934 #2
- G2 robust z-score: 1.4
- G2 cells, % of GMNN control: 12.8

LOC648934 #3
- G2 robust z-score: 0.305
- G2 cells, % of GMNN control: 5.11

IKZF4 #1
- G2 robust z-score: 0.46
- G2 cells, % of GMNN control: 6.21

IKZF4 #2
- G2 robust z-score: -0.687
- G2 cells, % of GMNN control: -1.87

IKZF4 #3
- G2 robust z-score: -0.129
- G2 cells, % of GMNN control: 2.06

RAVER1 #1
- G2 robust z-score: -0.718
- G2 cells, % of GMNN control: -2.09

RAVER1 #2
- G2 robust z-score: 1.72
- G2 cells, % of GMNN control: 15.1

RAVER1 #3
- G2 robust z-score: -0.178
- G2 cells, % of GMNN control: 1.71

ATOSA #1
- G2 robust z-score: -0.518
- G2 cells, % of GMNN control: -0.679

ATOSA #2
- G2 robust z-score: -0.0281
- G2 cells, % of GMNN control: 2.77

ATOSA #3
- G2 robust z-score: -0.744
- G2 cells, % of GMNN control: -2.27

PACS2 #1
- G2 robust z-score: 3.84
- G2 cells, % of GMNN control: 30

PACS2 #2
- G2 robust z-score: 0.13
- G2 cells, % of GMNN control: 3.88

PACS2 #3
- G2 robust z-score: 1.55
- G2 cells, % of GMNN control: 13.9

KRTAP3-3 #1
- G2 robust z-score: 2
- G2 cells, % of GMNN control: 17

KRTAP3-3 #2
- G2 robust z-score: 0.0921
- G2 cells, % of GMNN control: 3.62

KRTAP3-3 #3
- G2 robust z-score: 2.92
- G2 cells, % of GMNN control: 23.5

HSPBAP1 #1
- G2 robust z-score: 0.354
- G2 cells, % of GMNN control: 5.46

HSPBAP1 #2
- G2 robust z-score: 3.13
- G2 cells, % of GMNN control: 25

HSPBAP1 #3
- G2 robust z-score: -1.37
- G2 cells, % of GMNN control: -6.66

NLGN2 #1
- G2 robust z-score: -0.7
- G2 cells, % of GMNN control: -1.96

NLGN2 #2
- G2 robust z-score: -0.316
- G2 cells, % of GMNN control: 0.742

NLGN2 #3
- G2 robust z-score: -1.03
- G2 cells, % of GMNN control: -4.27

RAMP1 #1
- G2 robust z-score: -0.262
- G2 cells, % of GMNN control: 1.12

RAMP1 #2
- G2 robust z-score: -0.52
- G2 cells, % of GMNN control: -0.693

RAMP1 #3
- G2 robust z-score: 0.409
- G2 cells, % of GMNN control: 5.85

EGFR #1
- G2 robust z-score: -0.512
- G2 cells, % of GMNN control: -0.638

EGFR #2
- G2 robust z-score: 0.552
- G2 cells, % of GMNN control: 6.85

EGFR #3
- G2 robust z-score: -0.294
- G2 cells, % of GMNN control: 0.9

An excerpt from above, reduced to “G2 robust z-score”.
HSPBAP1 #2	3.13
HSPBAP1 #3	-1.37
NLGN2 #1	-0.7
NLGN2 #2	-0.316
